Source: the supplement of paper PMC10849652
The list shows a part of the results.

Amino acid sequences for entries named in this document (tags omitted). A change or cut given only in a name is not applied to a line headed by its entry.
UniProt Q9H582: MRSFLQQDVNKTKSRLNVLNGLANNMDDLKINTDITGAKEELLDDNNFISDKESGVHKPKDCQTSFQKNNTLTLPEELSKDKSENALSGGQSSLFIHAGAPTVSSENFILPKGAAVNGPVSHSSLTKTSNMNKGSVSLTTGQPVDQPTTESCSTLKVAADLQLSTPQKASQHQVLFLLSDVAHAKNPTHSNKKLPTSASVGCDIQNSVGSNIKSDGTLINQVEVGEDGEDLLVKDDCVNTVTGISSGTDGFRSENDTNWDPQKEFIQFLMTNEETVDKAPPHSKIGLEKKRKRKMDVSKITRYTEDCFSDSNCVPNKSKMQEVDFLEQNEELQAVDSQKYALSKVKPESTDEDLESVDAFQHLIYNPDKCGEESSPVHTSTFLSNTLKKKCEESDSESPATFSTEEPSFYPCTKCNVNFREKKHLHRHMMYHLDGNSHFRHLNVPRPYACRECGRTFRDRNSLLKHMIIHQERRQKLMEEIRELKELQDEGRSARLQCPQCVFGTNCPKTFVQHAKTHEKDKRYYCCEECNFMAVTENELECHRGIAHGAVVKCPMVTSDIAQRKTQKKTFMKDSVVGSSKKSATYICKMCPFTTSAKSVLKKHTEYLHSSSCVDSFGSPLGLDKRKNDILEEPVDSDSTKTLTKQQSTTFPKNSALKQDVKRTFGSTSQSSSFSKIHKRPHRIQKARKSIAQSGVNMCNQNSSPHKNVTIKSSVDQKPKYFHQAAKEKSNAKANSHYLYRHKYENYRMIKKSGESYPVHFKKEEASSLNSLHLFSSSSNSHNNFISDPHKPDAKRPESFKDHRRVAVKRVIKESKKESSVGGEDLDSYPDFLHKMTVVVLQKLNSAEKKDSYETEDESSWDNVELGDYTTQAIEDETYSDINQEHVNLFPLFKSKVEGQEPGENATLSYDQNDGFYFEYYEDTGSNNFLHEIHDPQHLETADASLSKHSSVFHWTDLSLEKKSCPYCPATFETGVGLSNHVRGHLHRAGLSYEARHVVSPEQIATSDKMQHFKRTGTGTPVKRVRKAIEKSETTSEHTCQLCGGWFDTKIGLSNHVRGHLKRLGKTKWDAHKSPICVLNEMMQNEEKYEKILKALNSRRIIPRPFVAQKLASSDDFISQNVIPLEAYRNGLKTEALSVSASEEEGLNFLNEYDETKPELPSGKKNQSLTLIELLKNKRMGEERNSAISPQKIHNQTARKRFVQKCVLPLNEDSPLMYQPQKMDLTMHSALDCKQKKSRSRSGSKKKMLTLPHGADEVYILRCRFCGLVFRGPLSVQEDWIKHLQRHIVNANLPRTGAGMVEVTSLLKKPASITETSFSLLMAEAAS
UniProt Q499Z4: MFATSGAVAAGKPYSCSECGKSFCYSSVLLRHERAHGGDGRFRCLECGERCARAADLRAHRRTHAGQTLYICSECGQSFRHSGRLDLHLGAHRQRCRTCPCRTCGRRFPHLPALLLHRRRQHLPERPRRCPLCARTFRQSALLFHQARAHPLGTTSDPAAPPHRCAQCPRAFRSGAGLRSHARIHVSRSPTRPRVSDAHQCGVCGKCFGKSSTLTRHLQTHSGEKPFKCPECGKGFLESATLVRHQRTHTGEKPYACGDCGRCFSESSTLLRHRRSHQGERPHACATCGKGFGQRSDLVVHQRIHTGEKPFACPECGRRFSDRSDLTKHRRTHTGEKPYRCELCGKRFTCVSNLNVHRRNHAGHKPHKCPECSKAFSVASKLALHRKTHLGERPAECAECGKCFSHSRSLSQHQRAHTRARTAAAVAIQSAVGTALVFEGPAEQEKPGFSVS
UniProt Q5VV52: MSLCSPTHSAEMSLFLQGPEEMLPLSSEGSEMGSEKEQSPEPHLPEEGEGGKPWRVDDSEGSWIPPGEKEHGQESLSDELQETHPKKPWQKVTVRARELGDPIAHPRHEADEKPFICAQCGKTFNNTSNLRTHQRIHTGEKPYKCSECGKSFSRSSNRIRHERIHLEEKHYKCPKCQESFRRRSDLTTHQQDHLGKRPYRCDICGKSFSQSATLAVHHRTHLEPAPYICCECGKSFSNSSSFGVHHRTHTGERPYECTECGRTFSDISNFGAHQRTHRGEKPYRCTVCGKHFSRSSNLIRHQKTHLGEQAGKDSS
UniProt Q9Y5V0: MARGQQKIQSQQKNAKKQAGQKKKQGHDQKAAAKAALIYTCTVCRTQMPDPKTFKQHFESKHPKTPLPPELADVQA
UniProt Q16587: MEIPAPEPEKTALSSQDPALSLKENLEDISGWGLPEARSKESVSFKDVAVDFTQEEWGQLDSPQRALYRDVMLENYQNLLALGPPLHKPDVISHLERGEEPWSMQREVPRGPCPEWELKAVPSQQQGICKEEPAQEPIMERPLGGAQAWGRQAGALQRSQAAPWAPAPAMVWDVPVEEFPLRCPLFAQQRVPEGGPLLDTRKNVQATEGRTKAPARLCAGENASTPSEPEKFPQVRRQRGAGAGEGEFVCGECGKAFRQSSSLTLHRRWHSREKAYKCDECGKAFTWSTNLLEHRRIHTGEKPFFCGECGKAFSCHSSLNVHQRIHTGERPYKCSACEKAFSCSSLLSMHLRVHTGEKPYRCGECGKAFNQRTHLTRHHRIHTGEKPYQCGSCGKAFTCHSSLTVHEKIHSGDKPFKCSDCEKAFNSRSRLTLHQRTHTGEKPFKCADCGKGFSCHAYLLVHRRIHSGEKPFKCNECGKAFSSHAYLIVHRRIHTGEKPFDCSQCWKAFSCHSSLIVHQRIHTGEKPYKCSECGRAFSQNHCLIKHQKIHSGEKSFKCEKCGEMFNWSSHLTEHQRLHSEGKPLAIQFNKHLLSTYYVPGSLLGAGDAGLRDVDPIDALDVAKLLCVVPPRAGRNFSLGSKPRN
UniProt Q8NDX6: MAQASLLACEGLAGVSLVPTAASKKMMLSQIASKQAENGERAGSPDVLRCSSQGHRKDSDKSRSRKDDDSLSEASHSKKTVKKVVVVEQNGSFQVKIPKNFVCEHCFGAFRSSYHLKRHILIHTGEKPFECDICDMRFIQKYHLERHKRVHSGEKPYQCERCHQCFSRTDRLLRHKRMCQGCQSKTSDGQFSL
UniProt Q9H5H4: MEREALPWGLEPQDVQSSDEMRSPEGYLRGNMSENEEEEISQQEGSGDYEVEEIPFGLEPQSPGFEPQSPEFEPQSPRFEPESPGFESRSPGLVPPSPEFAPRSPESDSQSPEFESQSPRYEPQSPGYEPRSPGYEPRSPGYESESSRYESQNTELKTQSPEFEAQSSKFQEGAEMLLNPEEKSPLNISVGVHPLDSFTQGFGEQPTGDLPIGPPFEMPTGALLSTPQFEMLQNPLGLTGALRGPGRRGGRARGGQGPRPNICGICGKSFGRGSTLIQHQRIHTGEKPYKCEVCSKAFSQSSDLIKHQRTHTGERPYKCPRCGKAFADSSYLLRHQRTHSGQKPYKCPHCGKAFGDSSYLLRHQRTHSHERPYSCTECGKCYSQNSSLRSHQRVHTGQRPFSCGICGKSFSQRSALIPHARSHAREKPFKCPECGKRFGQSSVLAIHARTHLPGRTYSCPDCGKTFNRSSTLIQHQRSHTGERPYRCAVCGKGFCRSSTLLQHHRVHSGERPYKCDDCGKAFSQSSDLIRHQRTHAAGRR
UniProt Q9H7X3: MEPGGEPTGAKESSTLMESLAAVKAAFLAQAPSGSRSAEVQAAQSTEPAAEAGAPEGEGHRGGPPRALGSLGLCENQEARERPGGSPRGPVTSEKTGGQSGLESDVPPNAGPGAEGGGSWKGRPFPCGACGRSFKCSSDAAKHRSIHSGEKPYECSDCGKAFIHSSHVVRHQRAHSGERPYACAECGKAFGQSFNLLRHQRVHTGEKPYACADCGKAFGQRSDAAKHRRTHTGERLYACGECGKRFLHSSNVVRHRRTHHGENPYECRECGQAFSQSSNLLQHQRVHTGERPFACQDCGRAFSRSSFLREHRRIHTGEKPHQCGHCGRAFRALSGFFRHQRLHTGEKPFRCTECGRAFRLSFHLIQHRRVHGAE
UniProt Q96BR6: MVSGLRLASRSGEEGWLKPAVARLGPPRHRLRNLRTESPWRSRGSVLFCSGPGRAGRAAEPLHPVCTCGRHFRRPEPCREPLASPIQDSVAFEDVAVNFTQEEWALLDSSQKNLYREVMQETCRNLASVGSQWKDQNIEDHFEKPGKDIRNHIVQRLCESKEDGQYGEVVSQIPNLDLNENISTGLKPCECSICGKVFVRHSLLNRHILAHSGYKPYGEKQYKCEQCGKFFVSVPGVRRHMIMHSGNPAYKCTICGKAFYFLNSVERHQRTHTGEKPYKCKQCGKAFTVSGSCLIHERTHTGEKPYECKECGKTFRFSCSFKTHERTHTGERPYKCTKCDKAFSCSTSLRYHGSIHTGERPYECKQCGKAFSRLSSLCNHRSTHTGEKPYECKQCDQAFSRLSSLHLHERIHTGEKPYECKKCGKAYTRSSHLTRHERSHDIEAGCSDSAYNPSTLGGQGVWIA
UniProt P0C7X2: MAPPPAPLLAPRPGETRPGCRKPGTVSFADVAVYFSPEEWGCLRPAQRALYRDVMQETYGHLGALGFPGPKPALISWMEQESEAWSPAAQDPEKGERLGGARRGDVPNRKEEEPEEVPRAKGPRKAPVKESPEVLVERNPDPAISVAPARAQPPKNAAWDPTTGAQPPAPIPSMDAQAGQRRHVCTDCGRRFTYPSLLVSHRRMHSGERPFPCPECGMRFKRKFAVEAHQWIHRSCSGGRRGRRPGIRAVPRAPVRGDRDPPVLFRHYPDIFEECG

Columns and labels:
Test in all cases: log2 fold change, soluble protein after heating vs DMSO (PISA); higher = thermal stabilisation; K562 cells, 10 uM, 30 min; active = over 0.2 and 3.5 SD of the protein, either way, in both replicates (recomputed)
ZNF644 = ZNF644 (UniProt Q9H582)
How it was run: (§1)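 Thermal stability values are relative to control samples and come from duplicates. They are expressed as log2 fold changes. For measurement, K562 cells (2×10^6 cells/mL) received 10 μM compound for 30 min, and aliquots were heated for 3 min over 48°C-58°C, pooled, and extracted at 4°C in PBS with 0.5% NP-40. Soluble protein, the supernatant after 21,000xg for 90 min, was quantified by TMTpro 16plex LC-MS/MS with equalised channel sums.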

ZNF672 = ZNF672 (UniProt Q499Z4)
How it was run: as §1

ZNF691 = ZNF691 (UniProt Q5VV52)
How it was run: as §1

ZNF706 = ZNF706 (UniProt Q9Y5V0)
How it was run: as §1

ZNF74 isoform 5 = ZNF74 isoform 5 (UniProt Q16587)
How it was run: as §1

ZNF740 = ZNF740 (UniProt Q8NDX6)
How it was run: as §1

ZNF768 = ZNF768 (UniProt Q9H5H4)
How it was run: as §1

ZNF696 = ZNF696 (UniProt Q9H7X3)
How it was run: as §1

ZNF669 = ZNF669 (UniProt Q96BR6)
How it was run: as §1

ZNF688 = ZNF688 (UniProt P0C7X2)
How it was run: as §1

Measured: log2 fold change

CCCS(=O)(=O)Nc1ccc(F)c(C(=O)c2c[nH]c3ncc(-c4ccc(Cl)cc4)cc23)c1F [vemurafenib]
inactive: ZNF644 = 0.033 | ZNF672 = -0.001 | ZNF691 = -0.064 | ZNF706 = 0.006 | ZNF74 isoform 5 = 0.185 | ZNF740 = -0.063 | ZNF768 = -0.078

Nc1ccccc1NC(=O)c1ccc(CNC(=O)OCc2cccnc2)cc1 [entinostat]
inactive: ZNF644 = -0.22 | ZNF672 = -0.03 | ZNF691 = -0.084 | ZNF696 = -0.022 | ZNF706 = -0.049 | ZNF74 isoform 5 = 0.202 | ZNF768 = -0.005

O=C(Nc1nc2ccccc2n1CCN1CCOCC1)c1cccc([N+](=O)[O-])c1 [IRAK-1-4 Inhibitor I]
inactive: ZNF644 = 0.019 | ZNF672 = 0.106 | ZNF691 = 0.038 | ZNF706 = 0.035 | ZNF74 isoform 5 = -0.034 | ZNF768 = -0.063

By substructure, the compounds so far containing four or more nitrogen atoms (2)
Nc1ccccc1NC(=O)c1ccc(CNC(=O)OCc2cccnc2)cc1 [entinostat]
inactive: ZNF644 = -0.22 | ZNF672 = -0.03 | ZNF691 = -0.084 | ZNF696 = -0.022 | ZNF706 = -0.049 | ZNF74 isoform 5 = 0.202 | ZNF768 = -0.005

O=C(Nc1nc2ccccc2n1CCN1CCOCC1)c1cccc([N+](=O)[O-])c1 [IRAK-1-4 Inhibitor I]
inactive: ZNF644 = 0.019 | ZNF672 = 0.106 | ZNF691 = 0.038 | ZNF706 = 0.035 | ZNF74 isoform 5 = -0.034 | ZNF768 = -0.063

(cont.)

COc1cc(C(=O)O)ccc1NC(=O)[C@@H]1N[C@@H](CC(C)(C)C)[C@](C#N)(c2ccc(Cl)cc2F)[C@H]1c1cccc(Cl)c1F [idasanutlin]
inactive: ZNF669 = 0.131 | ZNF672 = -0.072 | ZNF691 = 0.141 | ZNF706 = 0.068 | ZNF740 = 0.02 | ZNF768 = 0.162

O=C1NC(=NCc2cccs2)S/C1=C\c1ccc2ncccc2c1
inactive: ZNF669 = 0.025 | ZNF672 = -0.137 | ZNF691 = -0.198 | ZNF706 = -0.014 | ZNF740 = -0.077 | ZNF768 = -0.085

CN1CCN(c2nc(C3=C(c4c[nH]c5ccccc45)C(=O)NC3=O)c3ccccc3n2)CC1 [sotrastaurin]
inactive: ZNF644 = -0.103 | ZNF672 = 0.025 | ZNF691 = 0.075 | ZNF696 = -0.361 | ZNF706 = 0.043 | ZNF74 isoform 5 = 0 | ZNF768 = -0.023

Fc1ccc(Cl)cc1-c1nc(Nc2ccncc2)c2nccnc2n1
inactive: ZNF644 = -0.079 | ZNF691 = -0.03 | ZNF706 = 0.006 | ZNF74 isoform 5 = -0.147 | ZNF740 = -0.313 | ZNF768 = -0.395

C/C(=N\NC(=O)c1cccc(S(=O)(=O)N2CCOCC2)c1)c1cc(Cl)ccc1O
inactive: ZNF669 = -0.06 | ZNF672 = 0.001 | ZNF691 = 0.073 | ZNF706 = -0.014 | ZNF740 = -0.212 | ZNF768 = -0.173

CCCS(=O)(=O)Nc1ccc(F)c(C(=O)c2c[nH]c3ncc(Cl)cc23)c1F
inactive: ZNF669 = 0.08 | ZNF688 = -0.061 | ZNF691 = -0.018 | ZNF706 = -0.038 | ZNF74 isoform 5 = -0.093 | ZNF740 = 0.006 | ZNF768 = -0.132

Cc1ccc(-n2nc(C(C)(C)C)cc2NC(=O)Nc2ccc(OCCN3CCOCC3)c3ccccc23)cc1 [doramapimod]
inactive: ZNF644 = -0.282 | ZNF672 = 0.196 | ZNF691 = -0.021 | ZNF706 = -0.007 | ZNF74 isoform 5 = 0.099 | ZNF768 = 0.107

O=C1NC(=O)C(c2cnc3ccccn23)=C1c1cn2c3c(cc(F)cc13)CN(C(=O)N1CCCCC1)CC2
inactive: ZNF644 = -0.225 | ZNF691 = 0.021 | ZNF706 = -0.056 | ZNF74 isoform 5 = 0.053 | ZNF740 = 0.066 | ZNF768 = 0.188

NCC(=O)Nc1ccc(-n2nc(C(F)(F)F)cc2-c2ccc3c(ccc4ccccc43)c2)cc1
inactive: ZNF644 = 0.052 | ZNF672 = 0.114 | ZNF691 = 0.003 | ZNF706 = 0.017 | ZNF74 isoform 5 = -0.228 | ZNF740 = -0.137 | ZNF768 = 0.312

COc1ccc(Cn2ccc3ccc(C(=O)NO)cc32)cc1
inactive: ZNF644 = 0.203 | ZNF672 = -0.124 | ZNF691 = -0.009 | ZNF706 = -0.052 | ZNF74 isoform 5 = 0.024 | ZNF768 = -0.16

CC(C)N(C[C@H]1O[C@@H](n2cnc3c(N)ncnc32)[C@H](O)[C@@H]1O)[C@H]1C[C@@H](CCc2nc3cc(C(C)(C)C)ccc3[nH]2)C1 [pinometostat]
inactive: ZNF644 = 0.01 | ZNF672 = 0.169 | ZNF691 = 0.009 | ZNF706 = 0.017 | ZNF74 isoform 5 = 0.02 | ZNF768 = 0.192

NC(=O)Nc1cc(-c2cccc(F)c2)sc1C(=O)N[C@H]1CCCNC1
inactive: ZNF644 = -0.024 | ZNF672 = -0.016 | ZNF691 = 0.058 | ZNF696 = 0.097 | ZNF706 = -0.076 | ZNF74 isoform 5 = -0.051 | ZNF768 = 0.133

CC(C)(O)CC(=O)NCCn1ccc2ncnc(Nc3ccc(Oc4cccc(C(F)(F)F)c4)c(Cl)c3)c21
inactive: ZNF644 = -0.133 | ZNF691 = 0.058 | ZNF706 = 0.009 | ZNF74 isoform 5 = -0.097 | ZNF740 = 0.06 | ZNF768 = 0.088

CC[C@H](C)[C@H](NC(=O)[C@H]([C@@H](C)CC)N(C)C(C)=O)C(=O)N[C@H](C(=O)N[C@@H](CC(C)C)C(=O)[C@@]1(C)CO1)[C@@H](C)O [epoxomicin]
inactive: ZNF644 = -0.146 | ZNF691 = -0.002 | ZNF706 = 0.011 | ZNF74 isoform 5 = 0.091 | ZNF740 = 0.148 | ZNF768 = -0.233

CCCCN(Cc1ccc(C(=O)NO)cc1)C(=O)Nc1ccccc1 [Nexturastat A]
inactive: ZNF644 = 0.237 | ZNF691 = 0.153 | ZNF706 = 0.037 | ZNF74 isoform 5 = -0.09 | ZNF740 = 0.076 | ZNF768 = 0.091

CON(C)C(=O)N1N=C(c2cc(F)ccc2F)S[C@@]1(CCCN)c1ccccc1 [filanesib]
inactive: ZNF644 = 0.015 | ZNF672 = -0.248 | ZNF691 = 0.073 | ZNF696 = 0.387 | ZNF706 = 0.02 | ZNF74 isoform 5 = -0.029 | ZNF768 = 0.294

CN(C)CC(=O)Nc1ccc2[nH]c(=O)c3ccccc3c2c1
inactive: ZNF644 = -0.119 | ZNF672 = -0.005 | ZNF691 = 0.027 | ZNF706 = -0.034 | ZNF74 isoform 5 = -0.035 | ZNF740 = -0.081 | ZNF768 = -0.185

NC(=O)c1cnc(N[C@@H]2CCCC[C@@H]2N)nc1Nc1cccc(-n2nccn2)c1
inactive: ZNF669 = 0.009 | ZNF672 = 0.172 | ZNF691 = -0.155 | ZNF706 = 0.05 | ZNF740 = -0.084 | ZNF768 = 0.064

CC(=O)c1cnc2ccc(-c3cc(Cl)c(O)c(Cl)c3)nc2c1N[C@H]1CC[C@H](CN(C)C)CC1
inactive: ZNF669 = -0.153 | ZNF672 = 0.147 | ZNF691 = -0.148 | ZNF706 = 0.032 | ZNF740 = 0.003 | ZNF768 = 0.097

Cc1ccc(NC(=O)c2cccc(C(C)(C)C#N)c2)cc1Nc1ccc2ncn(C)c(=O)c2c1
inactive: ZNF644 = 0.215 | ZNF672 = 0.102 | ZNF691 = -0.041 | ZNF696 = -0.029 | ZNF706 = -0.011 | ZNF74 isoform 5 = 0.164 | ZNF768 = 0.008

O=C1c2ccccc2-c2n[nH]c3cccc1c23
inactive: ZNF669 = -0.065 | ZNF672 = -0.006 | ZNF691 = -0.135 | ZNF706 = -0.016 | ZNF740 = 0.228 | ZNF768 = -0.046

CS(=O)(=O)c1ccc(-c2cnc(N)c(C(=O)Nc3ccccc3)n2)cc1
inactive: ZNF644 = -0.026 | ZNF672 = -0.061 | ZNF691 = -0.008 | ZNF696 = 0.038 | ZNF706 = -0.014 | ZNF74 isoform 5 = -0.05 | ZNF768 = -0.166

CNC(=O)c1ccc(Nc2ncc(C(F)(F)F)c(NCc3nccnc3N(C)S(C)(=O)=O)n2)cc1 [defactinib]
inactive: ZNF644 = -0.044 | ZNF672 = 0.136 | ZNF691 = 0.036 | ZNF706 = 0.005 | ZNF74 isoform 5 = -0.27 | ZNF740 = -0.183 | ZNF768 = 0.26

C[C@@H]1COCCN1c1cc(C2(S(C)(=O)=O)CC2)nc(-c2cccc3[nH]ccc23)n1
inactive: ZNF644 = 0.039 | ZNF691 = -0.069 | ZNF706 = -0.041 | ZNF74 isoform 5 = 0.355 | ZNF740 = 0 | ZNF768 = -0.382

Cc1cccc(-c2[nH]c(C(C)(C)C)nc2-c2ccc3nccnc3c2)n1
inactive: ZNF644 = -0.452 | ZNF672 = 0.08 | ZNF691 = -0.053 | ZNF706 = -0.014 | ZNF74 isoform 5 = -0.019 | ZNF768 = -0.076

COC(=O)[C@H](CCSC)NC(=O)c1ccc(NC[C@@H](N)CS)cc1-c1ccccc1
inactive: ZNF644 = -0.067 | ZNF672 = -0.014 | ZNF691 = -0.054 | ZNF706 = 0.003 | ZNF74 isoform 5 = 0.095 | ZNF740 = 0.067 | ZNF768 = -0.011

C[C@@H](Oc1cc(-c2cnn(C3CCNCC3)c2)cnc1N)c1c(Cl)ccc(F)c1Cl [crizotinib]
inactive: ZNF644 = 0.149 | ZNF672 = -0.163 | ZNF691 = -0.046 | ZNF706 = 0.014 | ZNF74 isoform 5 = 0.155 | ZNF768 = 0.03

O=C(CCCCCCC(=O)Nc1ccccc1)NO [vorinostat]
inactive: ZNF672 = 0.28 | ZNF691 = -0.016 | ZNF696 = 0.086 | ZNF706 = 0.033 | ZNF74 isoform 5 = -0.036 | ZNF768 = -0.247

CNCc1ccc(-c2[nH]c3cc(F)cc4c3c2CCNC4=O)cc1 [rucaparib]
inactive: ZNF672 = 0.091 | ZNF691 = 0.126 | ZNF706 = 0.034 | ZNF74 isoform 5 = 0.017 | ZNF740 = -0.044 | ZNF768 = 0.264
